Source: paper doi:10.1101/2020.11.06.341933
Construct, isoform or probe ends are uncertain for at least one entry.

Target: His-NtrX, phosphorylated (NtrXr-P) (Sinorhizobium meliloti 1021) (UniProt Q92Q87)
Test: EMSA
Conditions: acetyl phosphate-phosphorylated

Question: Does “TGGGGCAATGGCTGAAAGAAAGTTTCTAGATCGGTCGGCATATCGCCGGACGAGACAGGTGTTCGAGTTTGAAGGAATTGGCCGGCTCGGCAAGGCGGCCAGGGAAAGAGAAGGAACAGGACATGGCCATCAACTTGCAGAAGCCGGACATTACCGAGCTGAAGCCGCGTATCACGGTCTTCGG (double strand) [PftsZ1 probe]” bind?
Answer: binds
